Source: paper PMC9938216

Chains of the proteins cited; added tags and fusions are not shown. Residues count along the entry.
UniProt P97952, residues 19-218: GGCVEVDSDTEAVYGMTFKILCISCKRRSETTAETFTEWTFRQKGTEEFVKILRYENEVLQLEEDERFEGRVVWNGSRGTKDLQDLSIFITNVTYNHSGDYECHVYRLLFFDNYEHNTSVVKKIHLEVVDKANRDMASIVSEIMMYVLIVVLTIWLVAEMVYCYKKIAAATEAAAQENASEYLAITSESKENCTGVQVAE
UniProt P46096: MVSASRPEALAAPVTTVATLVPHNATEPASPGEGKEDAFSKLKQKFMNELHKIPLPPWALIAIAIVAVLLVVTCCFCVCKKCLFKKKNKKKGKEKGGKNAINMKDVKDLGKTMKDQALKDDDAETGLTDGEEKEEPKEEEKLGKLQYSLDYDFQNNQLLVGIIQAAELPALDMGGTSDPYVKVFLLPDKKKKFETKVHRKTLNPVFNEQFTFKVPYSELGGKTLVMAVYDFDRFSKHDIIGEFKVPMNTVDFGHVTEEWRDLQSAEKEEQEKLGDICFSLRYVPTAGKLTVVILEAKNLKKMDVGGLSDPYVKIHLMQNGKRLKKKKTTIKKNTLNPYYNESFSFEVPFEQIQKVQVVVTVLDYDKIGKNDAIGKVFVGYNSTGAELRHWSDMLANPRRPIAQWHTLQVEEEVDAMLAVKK
UniProt Q8CC27: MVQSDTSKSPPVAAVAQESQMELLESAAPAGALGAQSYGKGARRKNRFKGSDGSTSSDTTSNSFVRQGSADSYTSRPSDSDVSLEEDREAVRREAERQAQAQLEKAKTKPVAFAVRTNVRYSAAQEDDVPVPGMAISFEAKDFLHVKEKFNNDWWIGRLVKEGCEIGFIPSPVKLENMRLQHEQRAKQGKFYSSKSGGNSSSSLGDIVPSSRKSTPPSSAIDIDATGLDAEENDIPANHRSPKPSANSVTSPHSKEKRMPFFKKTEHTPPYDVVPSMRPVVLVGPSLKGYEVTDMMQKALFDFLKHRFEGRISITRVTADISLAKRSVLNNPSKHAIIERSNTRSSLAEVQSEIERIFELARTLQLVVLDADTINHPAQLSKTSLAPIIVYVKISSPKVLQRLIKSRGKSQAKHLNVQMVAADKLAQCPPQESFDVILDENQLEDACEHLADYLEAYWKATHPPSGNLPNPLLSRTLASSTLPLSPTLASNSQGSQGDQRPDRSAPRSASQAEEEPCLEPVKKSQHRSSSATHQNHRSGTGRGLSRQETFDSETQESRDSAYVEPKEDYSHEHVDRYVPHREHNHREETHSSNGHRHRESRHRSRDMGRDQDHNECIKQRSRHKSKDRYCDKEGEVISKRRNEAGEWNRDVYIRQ
UniProt Q56A07, residues 30-215: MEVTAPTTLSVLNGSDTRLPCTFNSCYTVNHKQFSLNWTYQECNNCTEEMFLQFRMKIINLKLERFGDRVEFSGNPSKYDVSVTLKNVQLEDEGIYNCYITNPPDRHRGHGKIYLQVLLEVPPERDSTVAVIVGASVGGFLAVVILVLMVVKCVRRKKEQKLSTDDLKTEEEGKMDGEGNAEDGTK
UniProt Q8R3Z5: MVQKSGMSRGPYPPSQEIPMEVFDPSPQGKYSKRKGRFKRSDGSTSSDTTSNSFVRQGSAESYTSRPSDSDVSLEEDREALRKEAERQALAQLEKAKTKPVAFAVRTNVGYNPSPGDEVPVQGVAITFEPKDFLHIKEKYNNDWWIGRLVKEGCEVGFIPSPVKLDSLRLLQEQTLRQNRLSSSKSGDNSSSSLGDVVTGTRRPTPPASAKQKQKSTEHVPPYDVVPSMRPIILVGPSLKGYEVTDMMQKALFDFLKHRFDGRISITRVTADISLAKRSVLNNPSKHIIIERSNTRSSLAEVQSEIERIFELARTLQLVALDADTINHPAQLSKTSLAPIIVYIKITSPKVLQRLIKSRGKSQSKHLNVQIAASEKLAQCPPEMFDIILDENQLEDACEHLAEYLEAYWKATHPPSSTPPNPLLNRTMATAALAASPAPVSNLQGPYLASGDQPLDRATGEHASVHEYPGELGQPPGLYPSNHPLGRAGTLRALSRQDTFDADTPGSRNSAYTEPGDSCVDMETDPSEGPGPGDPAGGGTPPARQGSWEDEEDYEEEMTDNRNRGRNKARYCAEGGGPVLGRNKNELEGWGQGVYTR

T1: PRRT2 (mouse (endogenous in mouse neocortex)) (UniProt E9PUL5)
T1 sequence: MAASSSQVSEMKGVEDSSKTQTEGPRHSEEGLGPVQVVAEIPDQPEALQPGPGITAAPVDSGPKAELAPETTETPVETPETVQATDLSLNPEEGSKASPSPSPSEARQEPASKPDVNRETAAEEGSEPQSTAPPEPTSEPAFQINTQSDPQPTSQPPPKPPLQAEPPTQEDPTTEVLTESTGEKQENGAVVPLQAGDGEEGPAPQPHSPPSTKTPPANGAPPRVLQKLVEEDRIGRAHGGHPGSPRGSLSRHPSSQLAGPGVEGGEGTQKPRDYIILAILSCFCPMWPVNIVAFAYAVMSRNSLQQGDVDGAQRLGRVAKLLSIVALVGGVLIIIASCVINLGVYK


Target: T1, PRRT2 (mouse (endogenous in mouse neocortex))
Assay: affinity purification with mass spectrometry; PRRT2 rabbit antibody crosslinked to Protein A/G beads, against non-specific rabbit IgG; washed (1 M KI) membrane fraction of mouse neocortex solubilised in 1% CHAPS, 100 mM NaCl, 20 mM HEPES pH 7.4, 5 mM EDTA; overnight at 4 °C; n = 3

Molecule	binding
SCN1B (from UniProt P97952 19-218)	binds
SYT1 (from UniProt P46096 1-421)	binds
CACNB2 (from UniProt Q8CC27 1-655)	binds
SCN2B (from UniProt Q56A07 30-215)	binds
CACNB1 (from UniProt Q8R3Z5 1-597)	binds
TARP-ϒ8 (protein, UniProt Q8VHW2 1-423) MESLKRWNEERGLWCEKGVQVLLTTIGAFSAFGLMTIAISTDYWLYTRALICNTTNLTAGDDGPPHRGGSGSSEKKDPGGLTHSGLWRICCLEGLKRGVCVKINHFPEDTDYDHDSAEYLLRVVRASSIFPILSAILLLLGGVCVAASRVYKSKRNIILGAGILFVAAGLSNIIGVIVYISANAGEPGPKRDEEKKNHYSYGWSFYFGGLSFILAEVIGVLAVNIYIERSREAHCQSRSDLLKAGGGAGGSGGSGPSAILRLPSYRFRYRRRSRSSSRGSSEASPSRDASPGGPGGPGFASTDISMYTLSRDPSKGSVAAGLASAGGGGSGAGVGAYGGAAGAAGGGGAGSERDRGSSAGFLTLHNAFPKEAASGVTVTVTGPPAAPAPAPAPPAPAAPAPGTLSKEAAASNTNTLNRKTTPV	binds

Results are given in words; binding and its absence hold for the method and conditions named. Binding seen in cells or lysates may run through a third protein. These calls come from enrichment with a bait or labelling near it, and not all partners need be listed.
